Measurements: the supplement of paper PMC6078165
The reference is the same well before dosing, and untreated signal decays as well.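 Fibroblast labels denote human fibroblasts, mainly primary ones from uterus (C12385, HUF), lung (H6013), bone (Hs27A), adrenal (HADF) and skin (WS1), plus mammary HMF and breast cancer-associated Hs343T. Cancer cells are basal-like or mesenchymal-like triple-negative breast cancer lines. A hit is a response shift exceeding 3x replicate standard deviation. The tissue of the other fibroblasts is not given here.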

System: MDAMB468
Test: relative JC-1 red fluorescence (viability) vs pre-drug, coculture with fibroblast (fraction); higher = more viable cancer cells
Description: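 JC-1 labelled TNBC cells cocultured 1:1 (1,500 cells each) with CellTrace Violet stained primary or stromal fibroblasts in 384-well plates in FluoroBrite medium, treated with one of 42 anticancer drugs at 0.1, 1, 10 or 100 uM. JC-1 red fluorescence (mitochondrial integrity in cancer cells only) was read by plate reader every 8 h for 72 h. Values are normalised to each well's pre-drug value. The stock of one drug was tenfold lower, so its dose labels may be too high.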

O=NN(CCCl)C(=O)NCCCl [Carmustine]
relative JC-1 red fluorescence
Conditions | 8 h | 16 h | 24 h | 32 h | 40 h | 48 h | 56 h | 64 h | 72 h
0.1 µM, coculture fibroblast: C12385 | 0.898 | 0.84 | 0.844 | 0.782 | 0.747 | 0.735 | 0.694 | 0.676 | 0.661
0.1 µM, coculture fibroblast: H6013 | 0.896 | 0.84 | 0.79863 | 0.7915 | 0.772 | 0.788 | 0.759 | 0.742 | 0.701
0.1 µM, coculture fibroblast: H6019 | 0.8405 | 0.789 | 0.768 | 0.708 | 0.666 | 0.645 | 0.598 | 0.555 | 0.525
0.1 µM, coculture fibroblast: H6076 | 0.955 | 0.9635 | 0.897 | 0.92 | 0.854 | 0.86 | 0.83 | 0.818 | 0.889
0.1 µM, coculture fibroblast: H6231 | 0.84 | 0.892 | 0.81876 | 0.8024 | 0.7369 | 0.719 | 0.675 | 0.66 | 0.646
0.1 µM, coculture fibroblast: HADF | 0.8873 | 0.868 | 0.779 | 0.766 | 0.704 | 0.693 | 0.643 | 0.621 | 0.587
0.1 µM, coculture fibroblast: HCFa | 0.8793 | 0.79973 | 0.751 | 0.73 | 0.664 | 0.655 | 0.602 | 0.566 | 0.51
0.1 µM, coculture fibroblast: HCPF | 0.8885 | 0.963 | 0.874 | 0.853 | 0.774 | 0.756 | 0.7058 | 0.6907 | 0.686
0.1 µM, coculture fibroblast: HHSteC | 0.899 | 0.852 | 0.78566 | 0.768 | 0.7094 | 0.69894 | 0.636 | 0.612 | 0.565
0.1 µM, coculture fibroblast: HMF | 0.8627 | 0.931 | 0.859 | 0.856 | 0.787 | 0.782 | 0.736 | 0.721 | 0.721
0.1 µM, coculture fibroblast: HPFa | 0.923 | 0.897 | 0.831 | 0.772 | 0.724 | 0.72 | 0.647 | 0.61 | 0.531
0.1 µM, coculture fibroblast: HUF | 0.912 | 0.86 | 0.81 | 0.738 | 0.677 | 0.651 | 0.609 | 0.583 | 0.555
0.1 µM, coculture fibroblast: Hs5 | 0.8206 | 0.9 | 0.933 | 0.9081 | 0.847 | 0.8067 | 0.76 | 0.715 | 0.73
0.1 µM, coculture fibroblast: Hs27A | 0.8403 | 0.758 | 0.734 | 0.734 | 0.666 | 0.6549 | 0.62 | 0.599 | 0.561
0.1 µM, coculture fibroblast: Hs343T | 0.932 | 0.814 | 0.822 | 0.928 | 0.849 | 0.832 | 0.772 | 0.748 | 0.727
0.1 µM, coculture fibroblast: WS1 | 0.8864 | 0.812 | 0.747 | 0.684 | 0.639 | 0.611 | 0.583 | 0.552 | 0.54
1 µM, coculture fibroblast: C12385 | 0.859 | 0.837 | 0.8179 | 0.774 | 0.748 | 0.752 | 0.717 | 0.706 | 0.706
1 µM, coculture fibroblast: H6013 | 0.8377 | 0.8443 | 0.805 | 0.795 | 0.7875 | 0.8006 | 0.7767 | 0.764 | 0.72
1 µM, coculture fibroblast: H6019 | 0.8049 | 0.81 | 0.791 | 0.764 | 0.749 | 0.741 | 0.698 | 0.676 | 0.651
1 µM, coculture fibroblast: H6076 | 0.899 | 0.889 | 0.877 | 0.897 | 0.834 | 0.849 | 0.838 | 0.838 | 0.903
1 µM, coculture fibroblast: H6231 | 0.848 | 0.855 | 0.816 | 0.831 | 0.758 | 0.747 | 0.704 | 0.693 | 0.693
1 µM, coculture fibroblast: HADF | 0.888 | 0.8189 | 0.768 | 0.755 | 0.707 | 0.692 | 0.656 | 0.646 | 0.615
1 µM, coculture fibroblast: HCFa | 0.8393 | 0.829 | 0.775 | 0.745 | 0.698 | 0.681 | 0.635 | 0.591 | 0.541
1 µM, coculture fibroblast: HCPF | 0.82 | 0.865 | 0.826 | 0.8356 | 0.75664 | 0.737 | 0.705 | 0.695 | 0.701
1 µM, coculture fibroblast: HHSteC | 0.865 | 0.86 | 0.827 | 0.797 | 0.769 | 0.763 | 0.703 | 0.687 | 0.635
1 µM, coculture fibroblast: HMF | 0.825 | 0.857 | 0.818 | 0.803 | 0.724 | 0.714 | 0.679 | 0.663 | 0.663
1 µM, coculture fibroblast: HPFa | 0.942 | 0.8706 | 0.846 | 0.79453 | 0.768 | 0.771 | 0.7 | 0.675 | 0.583
1 µM, coculture fibroblast: HUF | 0.8633 | 0.8031 | 0.767 | 0.706 | 0.655 | 0.635 | 0.587 | 0.571 | 0.56
1 µM, coculture fibroblast: Hs5 | 0.973 | 0.917 | 0.8943 | 0.866 | 0.785 | 0.756 | 0.724 | 0.685 | 0.7
1 µM, coculture fibroblast: Hs27A | 0.8594 | 0.849 | 0.78 | 0.777 | 0.726 | 0.716 | 0.6766 | 0.6536 | 0.614
1 µM, coculture fibroblast: Hs343T | 0.851 | 0.872 | 0.8388 | 0.823 | 0.735 | 0.717 | 0.678 | 0.666 | 0.661
1 µM, coculture fibroblast: WS1 | 0.8506 | 0.812 | 0.776 | 0.728 | 0.681 | 0.664 | 0.643 | 0.622 | 0.615
10 µM, coculture fibroblast: C12385 | 0.8787 | 0.8291 | 0.7681 | 0.6965 | 0.6505 | 0.6256 | 0.5839 | 0.5494 | 0.5278
10 µM, coculture fibroblast: H6013 | 0.871 | 0.817 | 0.782 | 0.769 | 0.735 | 0.729 | 0.697 | 0.676 | 0.632
10 µM, coculture fibroblast: H6019 | 0.849 | 0.7972 | 0.785 | 0.74 | 0.702 | 0.684 | 0.629 | 0.594 | 0.564
10 µM, coculture fibroblast: H6076 | 0.9733 | 0.84 | 0.9113 | 0.91 | 0.8347 | 0.8095 | 0.761 | 0.7343 | 0.778
10 µM, coculture fibroblast: H6231 | 0.823 | 0.925 | 0.852 | 0.8614 | 0.7883 | 0.76252 | 0.707 | 0.6707 | 0.6604
10 µM, coculture fibroblast: HADF | 0.889 | 0.848 | 0.7927 | 0.7722 | 0.7196 | 0.712 | 0.661 | 0.641 | 0.591
10 µM, coculture fibroblast: HCFa | 0.868 | 0.814 | 0.776 | 0.758 | 0.698 | 0.693 | 0.651 | 0.622 | 0.573
10 µM, coculture fibroblast: HCPF | 0.957 | 0.95 | 0.961 | 0.966 | 0.887 | 0.867 | 0.825 | 0.807 | 0.797
10 µM, coculture fibroblast: HHSteC | 0.9013 | 0.866 | 0.829 | 0.8 | 0.7505 | 0.74614 | 0.684 | 0.653 | 0.603
10 µM, coculture fibroblast: HMF | 0.908 | 0.906 | 0.969 | 0.951 | 0.87 | 0.844 | 0.802 | 0.778 | 0.758
10 µM, coculture fibroblast: HPFa | 0.918 | 0.868 | 0.8 | 0.728 | 0.664 | 0.646 | 0.573 | 0.533 | 0.457
10 µM, coculture fibroblast: HUF | 0.8995 | 0.826 | 0.745 | 0.6777 | 0.62 | 0.592 | 0.551 | 0.525 | 0.501
10 µM, coculture fibroblast: Hs5 | 0.778 | 0.853 | 0.82 | 0.941 | 0.871 | 0.836 | 0.791 | 0.755 | 0.786
10 µM, coculture fibroblast: Hs27A | 0.842 | 0.781 | 0.754 | 0.747 | 0.689 | 0.675 | 0.631 | 0.597 | 0.54
10 µM, coculture fibroblast: Hs343T | 0.9128 | 0.98 | 0.909 | 0.901 | 0.826 | 0.809 | 0.745 | 0.73 | 0.705
10 µM, coculture fibroblast: WS1 | 0.8671 | 0.7942 | 0.706 | 0.628 | 0.5707 | 0.529 | 0.493 | 0.447 | 0.4224
100 µM, coculture fibroblast: C12385 | 0.83318 | 0.8034 | 0.78 | 0.7265 | 0.6931 | 0.69216 | 0.6595 | 0.638 | 0.6192
100 µM, coculture fibroblast: H6013 | 0.875 | 0.87327 | 0.8395 | 0.8347 | 0.8345 | 0.8499 | 0.835 | 0.837 | 0.787
100 µM, coculture fibroblast: H6019 | 0.8353 | 0.818 | 0.799 | 0.754 | 0.713 | 0.703 | 0.667 | 0.633 | 0.611
100 µM, coculture fibroblast: H6076 | 0.9115 | 0.927 | 0.8926 | 0.913 | 0.869 | 0.88 | 0.863 | 0.868 | 0.918
100 µM, coculture fibroblast: H6231 | 0.7848 | 0.85 | 0.817 | 0.818 | 0.77 | 0.7494 | 0.703 | 0.684 | 0.682
100 µM, coculture fibroblast: HADF | 0.8741 | 0.8842 | 0.8369 | 0.8379 | 0.816 | 0.811 | 0.768 | 0.765 | 0.7
100 µM, coculture fibroblast: HCFa | 0.91 | 0.912 | 0.893 | 0.878 | 0.858 | 0.866 | 0.83 | 0.811 | 0.76
100 µM, coculture fibroblast: HCPF | 0.852 | 0.876 | 0.839 | 0.8437 | 0.7762 | 0.751 | 0.716 | 0.705 | 0.707
100 µM, coculture fibroblast: HHSteC | 0.859 | 0.822 | 0.791 | 0.76 | 0.744 | 0.741 | 0.705 | 0.692 | 0.653
100 µM, coculture fibroblast: HMF | 0.849 | 0.913 | 0.867 | 0.85 | 0.773 | 0.765 | 0.728 | 0.714 | 0.709
100 µM, coculture fibroblast: HPFa | 0.913 | 0.906 | 0.868 | 0.81 | 0.797 | 0.797 | 0.737 | 0.728 | 0.653
100 µM, coculture fibroblast: HUF | 0.88 | 0.828 | 0.808 | 0.756 | 0.732 | 0.721 | 0.6844 | 0.679 | 0.6652
100 µM, coculture fibroblast: Hs5 | 0.9391 | 0.9222 | 0.909 | 0.9052 | 0.852 | 0.839 | 0.823 | 0.798 | 0.835
100 µM, coculture fibroblast: Hs27A | 0.839 | 0.8839 | 0.8256 | 0.8318 | 0.8167 | 0.81608 | 0.794 | 0.781 | 0.729
100 µM, coculture fibroblast: Hs343T | 0.8512 | 0.8907 | 0.8225 | 0.802 | 0.728 | 0.719 | 0.685 | 0.663 | 0.643
100 µM, coculture fibroblast: WS1 | 0.845 | 0.781 | 0.741 | 0.682 | 0.648 | 0.615 | 0.587 | 0.558 | 0.545
